Measurements reported in paper PMC9463131, “SLITRK1-mediated noradrenergic projection suppression in the neonatal prefrontal cortex” (Communications Biology, 2022).

Chains of the proteins cited; added tags and fusions are not shown. Residues count along the entry.
UniProt P11627, residues 20-1260: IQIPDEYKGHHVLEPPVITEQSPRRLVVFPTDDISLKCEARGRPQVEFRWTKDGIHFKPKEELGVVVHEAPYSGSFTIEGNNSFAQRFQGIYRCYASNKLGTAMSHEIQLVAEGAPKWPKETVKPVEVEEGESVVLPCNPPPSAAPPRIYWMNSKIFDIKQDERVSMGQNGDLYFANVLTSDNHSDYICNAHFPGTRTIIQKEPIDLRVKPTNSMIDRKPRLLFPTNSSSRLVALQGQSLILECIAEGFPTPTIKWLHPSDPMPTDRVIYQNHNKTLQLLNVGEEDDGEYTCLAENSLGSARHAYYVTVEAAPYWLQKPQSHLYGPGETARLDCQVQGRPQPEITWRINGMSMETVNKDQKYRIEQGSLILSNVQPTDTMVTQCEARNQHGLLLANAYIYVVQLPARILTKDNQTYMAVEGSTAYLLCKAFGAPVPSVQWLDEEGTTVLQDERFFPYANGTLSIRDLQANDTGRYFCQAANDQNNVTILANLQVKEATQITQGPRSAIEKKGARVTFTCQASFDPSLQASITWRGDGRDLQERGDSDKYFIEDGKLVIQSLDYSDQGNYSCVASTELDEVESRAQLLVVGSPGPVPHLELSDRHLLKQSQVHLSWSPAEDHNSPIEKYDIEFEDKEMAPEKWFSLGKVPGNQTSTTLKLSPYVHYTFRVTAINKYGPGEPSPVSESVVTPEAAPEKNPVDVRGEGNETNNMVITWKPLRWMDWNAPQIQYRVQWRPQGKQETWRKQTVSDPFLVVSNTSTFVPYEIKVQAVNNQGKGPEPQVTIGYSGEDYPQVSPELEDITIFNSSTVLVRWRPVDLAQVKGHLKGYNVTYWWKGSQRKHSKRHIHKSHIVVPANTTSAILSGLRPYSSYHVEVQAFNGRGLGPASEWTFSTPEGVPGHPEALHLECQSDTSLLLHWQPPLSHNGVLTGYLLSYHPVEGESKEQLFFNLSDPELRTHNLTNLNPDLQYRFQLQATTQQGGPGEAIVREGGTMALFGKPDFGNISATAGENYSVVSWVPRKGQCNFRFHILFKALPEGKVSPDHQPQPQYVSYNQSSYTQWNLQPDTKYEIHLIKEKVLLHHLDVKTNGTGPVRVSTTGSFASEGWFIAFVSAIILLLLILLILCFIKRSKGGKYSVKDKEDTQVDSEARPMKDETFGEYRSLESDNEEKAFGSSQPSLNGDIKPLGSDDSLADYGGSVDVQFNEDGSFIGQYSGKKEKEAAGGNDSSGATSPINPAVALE
UniProt P13595, residues 20-1115: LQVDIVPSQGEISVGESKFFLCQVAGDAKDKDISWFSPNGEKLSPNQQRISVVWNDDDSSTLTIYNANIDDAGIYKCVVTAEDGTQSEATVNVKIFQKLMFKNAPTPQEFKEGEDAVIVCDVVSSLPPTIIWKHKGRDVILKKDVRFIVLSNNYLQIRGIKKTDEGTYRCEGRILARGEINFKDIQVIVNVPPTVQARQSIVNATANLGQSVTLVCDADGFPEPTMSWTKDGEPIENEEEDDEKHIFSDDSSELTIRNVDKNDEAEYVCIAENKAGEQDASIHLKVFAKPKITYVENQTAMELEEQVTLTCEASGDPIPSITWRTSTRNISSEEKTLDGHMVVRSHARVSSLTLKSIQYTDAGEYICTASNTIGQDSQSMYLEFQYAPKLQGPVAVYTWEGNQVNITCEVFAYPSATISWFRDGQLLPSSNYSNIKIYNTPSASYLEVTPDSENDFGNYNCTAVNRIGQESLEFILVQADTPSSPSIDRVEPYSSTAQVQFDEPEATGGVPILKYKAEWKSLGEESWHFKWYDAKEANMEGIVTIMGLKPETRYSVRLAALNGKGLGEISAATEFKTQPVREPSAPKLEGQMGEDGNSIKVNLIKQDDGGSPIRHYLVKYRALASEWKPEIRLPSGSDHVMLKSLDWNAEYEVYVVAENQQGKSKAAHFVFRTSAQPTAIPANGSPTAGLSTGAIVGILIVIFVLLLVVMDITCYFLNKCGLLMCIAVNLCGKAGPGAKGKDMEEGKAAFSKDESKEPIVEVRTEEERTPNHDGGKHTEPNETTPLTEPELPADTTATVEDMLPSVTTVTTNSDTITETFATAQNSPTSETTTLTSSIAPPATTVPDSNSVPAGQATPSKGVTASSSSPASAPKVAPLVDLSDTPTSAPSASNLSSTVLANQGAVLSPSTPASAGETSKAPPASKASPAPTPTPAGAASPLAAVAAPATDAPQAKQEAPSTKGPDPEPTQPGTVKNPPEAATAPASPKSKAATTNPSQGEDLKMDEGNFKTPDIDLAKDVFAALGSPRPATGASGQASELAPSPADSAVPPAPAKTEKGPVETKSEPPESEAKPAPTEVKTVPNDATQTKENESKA

T1: Slitrk1 (endogenous, mouse brain) (mouse (endogenous in mouse brain)) (UniProt Q810C1)
T1 sequence: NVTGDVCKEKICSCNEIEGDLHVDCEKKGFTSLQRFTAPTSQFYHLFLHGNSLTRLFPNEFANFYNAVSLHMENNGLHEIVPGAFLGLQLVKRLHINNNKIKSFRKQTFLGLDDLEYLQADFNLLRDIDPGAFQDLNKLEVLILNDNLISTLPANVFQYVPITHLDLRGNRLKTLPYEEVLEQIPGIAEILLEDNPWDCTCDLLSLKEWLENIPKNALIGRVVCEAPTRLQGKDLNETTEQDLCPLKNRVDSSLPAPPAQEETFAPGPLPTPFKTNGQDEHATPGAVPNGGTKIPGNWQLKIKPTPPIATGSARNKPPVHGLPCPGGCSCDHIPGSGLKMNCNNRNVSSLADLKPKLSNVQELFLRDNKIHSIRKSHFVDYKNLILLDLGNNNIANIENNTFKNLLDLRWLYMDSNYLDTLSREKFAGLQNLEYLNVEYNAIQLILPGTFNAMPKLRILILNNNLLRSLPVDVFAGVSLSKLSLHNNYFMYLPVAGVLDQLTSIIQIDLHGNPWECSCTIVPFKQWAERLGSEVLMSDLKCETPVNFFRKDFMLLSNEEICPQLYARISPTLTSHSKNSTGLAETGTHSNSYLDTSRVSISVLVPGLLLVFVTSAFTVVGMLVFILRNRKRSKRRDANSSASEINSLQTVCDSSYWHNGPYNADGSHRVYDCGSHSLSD


Each molecule was assayed against T1, Slitrk1 (endogenous, mouse brain) (mouse (endogenous in mouse brain)) (assay: affinity purification with mass spectrometry; mouse brain membrane fraction lysed in PBS with 0.5% Triton X-100; anti-SLITRK1 C-terminus rabbit antibody or normal rabbit IgG overnight at 4 °C, protein G agarose; 200 kDa and 100 kDa CBB-stained bands excised, MALDI-TOF MS).

| binding | Molecule |
| --- | --- |
| binds | L1CAM (endogenous, mouse brain) (from UniProt P11627 20-1260) |
| binds | neural cell adhesion molecule (NCAM) (endogenous, mouse brain) (from UniProt P13595 20-1115) |
| binds | Dynamin1 (endogenous, mouse brain) (protein, UniProt P39053 1-867) MGNRGMEDLIPLVNRLQDAFSAIGQNADLDLPQIAVVGGQSAGKSSVLENFVGRDFLPRGSGIVTRRPLVLQLVNSTTEYAEFLHCKGKKFTDFEEVRLEIEAETDRVTGTNKGISPVPINLRVYSPHVLNLTLVDLPGMTKVPVGDQPPDIEFQIRDMLMQFVTKENCLILAVSPANSDLANSDALKIAKEVDPQGQRTIGVITKLDLMDEGTDARDVLENKLLPLRRGYIGVVNRSQKDIDGKKDITAALAAERKFFLSHPSYRHLADRMGTPYLQKVLNQQLTNHIRDTLPGLRNKLQSQLLSIEKEVDEYKNFRPDDPARKTKALLQMVQQFAVDFEKRIEGSGDQIDTYELSGGARINRIFHERFPFELVKMEFDEKELRREISYAIKNIHGIRTGLFTPDMAFETIVKKQVKKIREPCLKCVDMVISELISTVRQCTKKLQQYPRLREEMERIVTTHIREREGRTKEQVMLLIDIELAYMNTNHEDFIGFANAQQRSNQMNKKKTSGNQDEILVIRKGWLTINNIGIMKGGSKEYWFVLTAENLSWYKDDEEKEKKYMLSVDNLKLRDVEKGFMSSKHIFALFNTEQRNVYKDYRQLELACETQEEVDSWKASFLRAGVYPERVGDKEKASETEENGSDSFMHSMDPQLERQVETIRNLVDSYMAIVNKTVRDLMPKTIMHLMINNTKEFIFSELLANLYSCGDQNTLMEESAEQAQRRDEMLRMYHALKEALSIIGDINTTTVSTPMPPPVDDSWLQVQSVPAGRRSPTSSPTPQRRAPAVPPARPGSRGPAPGPPPAGSALGGAPPVPSRPGASPDPFGPPPQVPSRPNRAPPGVPSLGAWRLNSPQGKHENRAGKARL |
| binds | Neurofascin (endogenous, mouse brain) (protein, UniProt Q810U3 25-1240) IEIPMDPSIQNELTQPPTITKQSVKDHIVDPRDNILIECEAKGNPAPSFHWTRNSRFFNIAKDPRVSMRRRSGTLVIDFRSGGRPEEYEGEYQCFARNKFGTALSNRIRLQVSKSPLWPKENLDPVVVQEGAPLTLQCNPPPGLPSPVIFWMSSSMEPITQDKRVSQGHNGDLYFSNVMLQDMQTDYSCNARFHFTHTIQQKNPFTLKVLTTRGVAERTPSFMYPQGTSSSQMVLRGMDLLLECIASGVPTPDIAWYKKGGDLPSNKAKFENFNKALRITNVSEEDSGEYFCLASNKMGSIRHTISVRVKAAPYWLDEPKNLILAPGEDGRLVCRANGNPKPTVQWMVNGEPLQSAPPNPNREVAGDTIIFRDTQISSRAVYQCNTSNEHGYLLANAFVSVLDVPPRMLSARNQLIRVILYNRTRLDCPFFGSPIPTLRWFKNGQGSNLDGGNYHVYENGSLEIKMIRKEDQGIYTCVATNILGKAENQVRLEVKDPTRIYRMPEDQVAKRGTTVQLECRVKHDPSLKLTVSWLKDDEPLYIGNRMKKEDDSLTIFGVAERDQGSYTCMASTELDQDLAKAYLTVLADQATPTNRLAALPKGRPDRPRDLELTDLAERSVRLTWIPGDDNNSPITDYVVQFEEDQFQPGVWHDHSRFPGSVNSAVLHLSPYVNYQFRVIAVNEVGSSHPSLPSERYRTSGAPPESNPSDVKGEGTRKNNMEITWTPMNATSAFGPNLRYIVKWRRRETRETWNNVTVWGSRYVVGQTPVYVPYEIRVQAENDFGKGPEPDTIIGYSGEDLPSAPRRFRVRQPNLETINLEWDHPEHPNGILIGYILRYVPFNGTKLGKQMVENFSPNQTKFSVQRADPVSRYRFSLSARTQVGSGEAATEESPAPPNEATPTAAPPTLPPTTVGTTGLVSSTDATALAATSEATTVPIIPTVVPTTVATTIATTTTTTAATTTTTTTESPPTTTAGTKIHETAPDEQSIWNVTVLPNSKWANITWKHNFRPGTDFVVEYIDSNHTKKTVPVKAQAQPIQLTDLFPGMTYTLRVYSRDNEGISSTVITFMTSTAYTNNQADIATQGWFIGLMCAIALLVLILLIVCFIKRSRGGKYPVREKKDVPLGPEDPKEEDGSFDYSDEDNKPLQGSQTSLDGTIKQQESDDSLVDYGEGGEGQFNEDGSFIGQYTVKKDKEETEGNESSEATSPVNAIYSLA |

Results are given in words; binding and its absence hold for the method and conditions named. In cells and extracts the contact can be indirect. Here binding means that the protein was enriched with, or labelled near, the bait; the list need not be complete.
